# Experimental data taken from the supplement of paper PMC8728848.
# Some of the results follow.
# B1: AT5G17240(42) (Arabidopsis thaliana), Q6NQJ8 (protein)
# chain: MDLEHQTMETFLRWAAEIGISDSIDSSRFRDSCLGHSLSVSDFPDAGGRGLGAARELKKGELVLKVPRKALMTTESIIAKDLKLSDAVNLHNSLSSTQILSVCLLYEMSKEKKSFWYPYLFHIPRDYDLLATFGNFEKQALQVEDAVWATEKATAKCQSEWKEAGSLMKELELKPKFRSFQAWLWASATISSRTLHVPWDSAGCLCPVGDLFNYDAPGDYSNTPQGPESANNVEEAGLVVETHSERLTDGGFEEDVNAYCLYARRNYQLGEQVLLCYGTYTNLELLEHYGFMLEENSNDKVFIPLETSLFSLASSWPKDSLYIHQDGKLSFALISTLRLWLIPQSQRDKSVMRLVYAGSQISVKNEILVMKWMSEKCGSVLRDLPTSVTEDTVLLHNIDKLQDPELRLEQKETEAFGSEVRAFLDANCLWDVTVLSGKPIEFSRKTSRMLSKWRWSVQWRLSYKRTLADCISYCNEKMNNLLGTQDRLRDL
# What was measured:
# Experiment in all cases: glycan array binding signal (z-score within array); higher = stronger binding
# Conditions in all cases: glycan notation: IUPAC condensed, linker removed
# [1] = molecular target: Fuc(a1-2)Gal6S(b1-3)GlcNAc
# Procedure, shortened: (§1)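 Arrays were curated from the Consortium for Functional Glycomics database, 3228 in total, and kept only where the protein sequence was available. Binding is expressed as a within-array Z-score. This score was averaged across arrays of the same protein sequence at different concentrations or buffers and across linkers, and negative values can be read as non-binding.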
# [2] = molecular target: Fuc(a1-2)Gal6S(b1-3)GlcNAc6S
# Procedure, shortened: as §1
# Fuc(a1-2)Gal6S(b1-4)Glc = molecular target: Fuc(a1-2)Gal6S(b1-4)Glc
# Procedure, shortened: as §1
# [3] = molecular target: Fuc(a1-2)Gal6S(b1-4)Glc6S
# Procedure, shortened: as §1
# Fuc(a1-2)[Gal(a1-3)]Gal = molecular target: Fuc(a1-2)[Gal(a1-3)]Gal
# Procedure, shortened: as §1
# [4] = molecular target: Fuc(a1-2)[Gal(a1-3)]Gal(b1-3)GalNAc
# Procedure, shortened: as §1
# [5] = molecular target: Fuc(a1-2)[Gal(a1-3)]Gal(b1-3)GalNAc(b1-3)Gal(a1-4)Gal(b1-4)Glc
# Procedure, shortened: as §1
# [6] = molecular target: Fuc(a1-2)[Gal(a1-3)]Gal(b1-3)GlcNAc
# Procedure, shortened: as §1
# [7] = molecular target: Fuc(a1-2)[Gal(a1-3)]Gal(b1-3)GlcNAc(b1-2)Man(a1-3)[Fuc(a1-2)[Gal(a1-3)]Gal(b1-3)GlcNAc(b1-2)Man(a1-6)]Man(b1-4)GlcNAc(b1-4)GlcNAc
# Procedure, shortened: as §1
# [8] = molecular target: Fuc(a1-2)[Gal(a1-3)]Gal(b1-3)GlcNAc(b1-2)Man(a1-3)[Fuc(a1-2)[Gal(a1-3)]Gal(b1-3)GlcNAc(b1-2)Man(a1-6)]Man(b1-4)GlcNAc(b1-4)[Fuc(a1-6)]GlcNAc
# Procedure, shortened: as §1
# [9] = molecular target: Fuc(a1-2)[Gal(a1-3)]Gal(b1-3)GlcNAc(b1-3)GalNAc
# Procedure, shortened: as §1
# [10] = molecular target: Fuc(a1-2)[Gal(a1-3)]Gal(b1-3)GlcNAc(b1-6)GalNAc
# Procedure, shortened: as §1
# [11] = molecular target: Fuc(a1-2)[Gal(a1-3)]Gal(b1-4)Glc
# Procedure, shortened: as §1
# [12] = molecular target: Fuc(a1-2)[Gal(a1-3)]Gal(b1-4)GlcNAc
# Procedure, shortened: as §1
# [13] = molecular target: Fuc(a1-2)[Gal(a1-3)]Gal(b1-4)GlcNAc(b1-2)Man
# Procedure, shortened: as §1
# [14] = molecular target: Fuc(a1-2)[Gal(a1-3)]Gal(b1-4)GlcNAc(b1-2)Man(a1-3)[Fuc(a1-2)[Gal(a1-3)]Gal(b1-4)GlcNAc(b1-2)Man(a1-6)]Man(b1-4)GlcNAc(b1-4)GlcNAc
# Procedure, shortened: as §1
# [15] = molecular target: Fuc(a1-2)[Gal(a1-3)]Gal(b1-4)GlcNAc(b1-2)Man(a1-3)[Fuc(a1-2)[Gal(a1-3)]Gal(b1-4)GlcNAc(b1-2)Man(a1-6)]Man(b1-4)GlcNAc(b1-4)[Fuc(a1-6)]GlcNAc
# Procedure, shortened: as §1
# [16] = molecular target: Fuc(a1-2)[Gal(a1-3)]Gal(b1-4)GlcNAc(b1-3)GalNAc
# Procedure, shortened: as §1
# [17] = molecular target: Fuc(a1-2)[Gal(a1-3)]Gal(b1-4)GlcNAc(b1-3)[Fuc(a1-2)[Gal(a1-3)]Gal(b1-4)GlcNAc(b1-6)]GalNAc
# Procedure, shortened: as §1
# [18] = molecular target: Fuc(a1-2)[Gal(a1-3)]Gal(b1-4)GlcNAc(b1-6)GalNAc
# Procedure, shortened: as §1
# [19] = molecular target: Fuc(a1-2)[Gal(a1-3)]Gal(b1-4)[Fuc(a1-3)]Glc
# Procedure, shortened: as §1
# [20] = molecular target: Fuc(a1-2)[Gal(a1-3)]Gal(b1-4)[Fuc(a1-3)]GlcNAc
# Procedure, shortened: as §1
# [21] = molecular target: Fuc(a1-2)[Gal(a1-3)]Gal(b1-4)[Fuc(a1-3)]GlcNAc(b1-3)GalNAc
# Procedure, shortened: as §1
# [22] = molecular target: Fuc(a1-2)[Gal(a1-4)]Gal(b1-4)GlcNAc
# Procedure, shortened: as §1
# [23] = molecular target: Fuc(a1-2)[GalNAc(a1-3)]Gal
# Procedure, shortened: as §1
# [24] = molecular target: Fuc(a1-2)[GalNAc(a1-3)]Gal(b1-3)GalNAc(a1-3)[Fuc(a1-2)]Gal(b1-4)GlcNAc
# Procedure, shortened: as §1
# [25] = molecular target: Fuc(a1-2)[GalNAc(a1-3)]Gal(b1-3)GalNAc(b1-3)Gal(a1-4)Gal(b1-4)Glc
# Procedure, shortened: as §1
# [26] = molecular target: Fuc(a1-2)[GalNAc(a1-3)]Gal(b1-3)GlcNAc
# Procedure, shortened: as §1
# [27] = molecular target: Fuc(a1-2)[GalNAc(a1-3)]Gal(b1-3)GlcNAc(b1-2)Man(a1-3)[Fuc(a1-2)[GalNAc(a1-3)]Gal(b1-3)GlcNAc(b1-2)Man(a1-6)]Man(b1-4)GlcNAc(b1-4)GlcNAc
# Procedure, shortened: as §1
# [28] = molecular target: Fuc(a1-2)[GalNAc(a1-3)]Gal(b1-3)GlcNAc(b1-2)Man(a1-3)[Fuc(a1-2)[GalNAc(a1-3)]Gal(b1-3)GlcNAc(b1-2)Man(a1-6)]Man(b1-4)GlcNAc(b1-4)[Fuc(a1-6)]GlcNAc
# Procedure, shortened: as §1
# [29] = molecular target: Fuc(a1-2)[GalNAc(a1-3)]Gal(b1-3)GlcNAc(b1-3)GalNAc
# Procedure, shortened: as §1
# [30] = molecular target: Fuc(a1-2)[GalNAc(a1-3)]Gal(b1-3)GlcNAc(b1-6)GalNAc
# Procedure, shortened: as §1
# [31] = molecular target: Fuc(a1-2)[GalNAc(a1-3)]Gal(b1-4)Glc
# Procedure, shortened: as §1
# [32] = molecular target: Fuc(a1-2)[GalNAc(a1-3)]Gal(b1-4)GlcNAc
# Procedure, shortened: as §1
# [33] = molecular target: Fuc(a1-2)[GalNAc(a1-3)]Gal(b1-4)GlcNAc(b1-2)Man
# Procedure, shortened: as §1
# [34] = molecular target: Fuc(a1-2)[GalNAc(a1-3)]Gal(b1-4)GlcNAc(b1-2)Man(a1-3)[Fuc(a1-2)[GalNAc(a1-3)]Gal(b1-4)GlcNAc(b1-2)Man(a1-6)]Man(b1-4)GlcNAc(b1-4)GlcNAc
# Procedure, shortened: as §1
# [35] = molecular target: Fuc(a1-2)[GalNAc(a1-3)]Gal(b1-4)GlcNAc(b1-2)Man(a1-3)[Fuc(a1-2)[GalNAc(a1-3)]Gal(b1-4)GlcNAc(b1-2)Man(a1-6)]Man(b1-4)GlcNAc(b1-4)[Fuc(a1-6)]GlcNAc
# Procedure, shortened: as §1
# [36] = molecular target: Fuc(a1-2)[GalNAc(a1-3)]Gal(b1-4)GlcNAc(b1-3)Gal(b1-4)GlcNAc
# Procedure, shortened: as §1
# [37] = molecular target: Fuc(a1-2)[GalNAc(a1-3)]Gal(b1-4)GlcNAc(b1-3)Gal(b1-4)GlcNAc(b1-3)Gal(b1-4)GlcNAc
# Procedure, shortened: as §1
# [38] = molecular target: Fuc(a1-2)[GalNAc(a1-3)]Gal(b1-4)GlcNAc(b1-3)GalNAc
# Procedure, shortened: as §1
# [39] = molecular target: Fuc(a1-2)[GalNAc(a1-3)]Gal(b1-4)GlcNAc(b1-3)[Fuc(a1-2)[GalNAc(a1-3)]Gal(b1-4)GlcNAc(b1-6)]GalNAc
# Procedure, shortened: as §1
# [40] = molecular target: Fuc(a1-2)[GalNAc(a1-3)]Gal(b1-4)GlcNAc(b1-6)GalNAc
# Procedure, shortened: as §1
# [41] = molecular target: Fuc(a1-2)[GalNAc(a1-3)]Gal(b1-4)[Fuc(a1-3)]GlcNAc
# Procedure, shortened: as §1
# [42] = molecular target: Fuc(a1-2)[GalNAc(a1-3)]Gal(b1-4)[Fuc(a1-3)]GlcNAc(b1-3)GalNAc
# Procedure, shortened: as §1
# [43] = molecular target: Fuc(a1-2)[GalNAc(a1-4)]Gal(b1-4)GlcNAc
# Procedure, shortened: as §1
binder,measurement,setting,value
B1,glycan array binding signal (z-score),[1],-0.076
same,glycan array binding signal (z-score),[2],0.061
same,glycan array binding signal (z-score),Fuc(a1-2)Gal6S(b1-4)Glc,-0.806
same,glycan array binding signal (z-score),[3],-0.53
same,glycan array binding signal (z-score),Fuc(a1-2)[Gal(a1-3)]Gal,1.1
same,glycan array binding signal (z-score),[4],-0.578
same,glycan array binding signal (z-score),[5],-0.757
same,glycan array binding signal (z-score),[6],-0.384
same,glycan array binding signal (z-score),[7],0.176
same,glycan array binding signal (z-score),[8],0.397
same,glycan array binding signal (z-score),[9],-0.932
same,glycan array binding signal (z-score),[10],-0.727
same,glycan array binding signal (z-score),[11],0.516
same,glycan array binding signal (z-score),[12],0.32
same,glycan array binding signal (z-score),[13],-0.779
same,glycan array binding signal (z-score),[14],0.142
same,glycan array binding signal (z-score),[15],-0.331
same,glycan array binding signal (z-score),[16],-0.626
same,glycan array binding signal (z-score),[17],-0.324
same,glycan array binding signal (z-score),[18],-0.375
same,glycan array binding signal (z-score),[19],0.583
same,glycan array binding signal (z-score),[20],0.5
same,glycan array binding signal (z-score),[21],-0.253
same,glycan array binding signal (z-score),[22],0.208
same,glycan array binding signal (z-score),[23],-0.222
same,glycan array binding signal (z-score),[24],-0.276
same,glycan array binding signal (z-score),[25],-0.358
same,glycan array binding signal (z-score),[26],-0.505
same,glycan array binding signal (z-score),[27],-0.714
same,glycan array binding signal (z-score),[28],-0.488
same,glycan array binding signal (z-score),[29],-0.641
same,glycan array binding signal (z-score),[30],-0.54
same,glycan array binding signal (z-score),[31],-0.719
same,glycan array binding signal (z-score),[32],-0.514
same,glycan array binding signal (z-score),[33],-0.32
same,glycan array binding signal (z-score),[34],0.114
same,glycan array binding signal (z-score),[35],-1.09
same,glycan array binding signal (z-score),[36],0.002
same,glycan array binding signal (z-score),[37],0.02
same,glycan array binding signal (z-score),[38],-0.332
same,glycan array binding signal (z-score),[39],0.084
same,glycan array binding signal (z-score),[40],-0.213
same,glycan array binding signal (z-score),[41],0.482
same,glycan array binding signal (z-score),[42],6.64
same,glycan array binding signal (z-score),[43],-0.684

# A stretch taken from the entries so far, as a working copy:
binder,measurement,setting,value
B1,glycan array binding signal (z-score),[28],-0.488
same,glycan array binding signal (z-score),[29],-0.641
